# Data as given in the supplement of paper PMC4604168 (melanoma cell lines).
# This is one part of the list. Many values rest on one well or one pass, so single values are uncertain.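 The apoptosis fraction was the count of cleaved-PARP antibody-stained nuclei relative to all DNA-stained nuclei, imaged in 1,536-well plates. Screening doses were set so most cells survived, and baseline and induced cleaved-PARP levels vary greatly across cell lines.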
# Experiments:
# Experiment in all cases: cleaved PARP positive nuclei fraction relative to DMSO control; melanoma cells; higher = more apoptosis
# Conditions in all cases: library dose: low library concentration; 72 h
# MZ2-MEL = system: MZ2-MEL
# MeWo = system: MeWo
# RPMI7951 = system: RPMI7951
# RVH-421 = system: RVH-421
# SkMel28 = system: SkMel28
# SkMel2 = system: SkMel2
# SkMel30 = system: SkMel30
# UACC62 = system: UACC62
# WM115 = system: WM115
# WM1716 = system: WM1716
# WM1745 = system: WM1745
# WM3526 = system: WM3526
# WM3619 = system: WM3619
# WM451Lu = system: WM451Lu
# SkMel5 = system: SkMel5
# UACC257 = system: UACC257
SMILES,cleaved PARP positive nuclei fraction (MZ2-MEL),cleaved PARP positive nuclei fraction (MeWo),cleaved PARP positive nuclei fraction (RPMI7951),cleaved PARP positive nuclei fraction (RVH-421),cleaved PARP positive nuclei fraction (SkMel28),cleaved PARP positive nuclei fraction (SkMel2),cleaved PARP positive nuclei fraction (SkMel30),cleaved PARP positive nuclei fraction (UACC62),cleaved PARP positive nuclei fraction (WM115),cleaved PARP positive nuclei fraction (WM1716),cleaved PARP positive nuclei fraction (WM1745),cleaved PARP positive nuclei fraction (WM3526),cleaved PARP positive nuclei fraction (WM3619),cleaved PARP positive nuclei fraction (WM451Lu),cleaved PARP positive nuclei fraction (SkMel5),cleaved PARP positive nuclei fraction (UACC257)
"Nc1ncn([C@H]2C[C@H](O)[C@@H](CO)O2)c(=O)n1 [decitabine] + C=CCNC1=C2C[C@@H](C)C[C@H](OC)[C@H](O)[C@@H](C)/C=C(\C)[C@H](OC(N)=O)[C@@H](OC)/C=C\C=C(/C)C(=O)NC(=CC1=O)C2=O [Tanespimycin] (first compound 0.1 µM, partner dose 0.002 µM)",154%,577%,121%,182%,89.2%,69.5%,106%,88.4%,27.4%,937%,104%,48.5%,88.5%,322%,,
"CC(C)C[C@H](NC(=O)[C@H](Cc1ccccc1)NC(=O)c1cnccn1)B(O)O [Bortezomib] + C[C@@H](Oc1cc(-c2cnn(C3CCNCC3)c2)cnc1N)c1c(Cl)ccc(F)c1Cl [Crizotinib] (first compound 0.001 µM, partner dose 0.2 µM)",128%,242%,163%,110%,47.8%,99.8%,172%,49.9%,68.7%,285%,278%,264%,594%,44.3%,,
"Cn1c(=O)n(-c2ccc(C(C)(C)C#N)cc2)c2c3cc(-c4cnc5ccccc5c4)ccc3ncc21 + C=CCNC1=C2C[C@@H](C)C[C@H](OC)[C@H](O)[C@@H](C)/C=C(\C)[C@H](OC(N)=O)[C@@H](OC)/C=C\C=C(/C)C(=O)NC(=CC1=O)C2=O [Tanespimycin] (first compound 0.004 µM, partner dose 0.002 µM)",115%,30.6%,105%,324%,333%,59.9%,92.4%,68.4%,143%,73.8%,105%,94.3%,114%,38.8%,,
"Cc1cc(Nc2cc(N3CCN(C)CC3)nc(/C=C/c3ccccc3)n2)n[nH]1 + Cn1c(=O)n(-c2ccc(C(C)(C)C#N)cc2)c2c3cc(-c4cnc5ccccc5c4)ccc3ncc21 [NVP-BEZ235] (first compound 0.04 µM, partner dose 0.004 µM)",46.2%,108%,71.6%,125%,102%,540%,87.1%,116%,62.4%,147%,111%,93.1%,97.8%,19.7%,,
"CS(=O)(=O)CCNCc1ccc(-c2ccc3ncnc(Nc4ccc(OCc5cccc(F)c5)c(Cl)c4)c3c2)o1 [lapatinib] + Clc1ccc(Nc2nnc(Cc3ccncc3)c3ccccc23)cc1 [vatalanib] (first compound 0.8 µM, partner dose 2 µM)",79.4%,233%,224%,261%,73.1%,78.9%,80.7%,84.4%,93.9%,44.1%,92.9%,165%,109%,140%,,
"Nc1nc(F)nc2c1ncn2[C@@H]1O[C@H](CO)[C@@H](O)[C@@H]1O [fludarabine] + COc1ccc(Cl)c(Nc2nc3ccccc3nc2NS(=O)(=O)c2cccc(NC(=O)C(C)(C)N)c2)c1 [XL147] (first compound 0.2 µM, partner dose 0.8 µM)",76.7%,1190%,106%,55.6%,53.2%,894%,1610%,34.9%,180%,49.6%,156%,280%,85.1%,94.3%,,
"CCCS(=O)(=O)Nc1ccc(F)c(C(=O)c2c[nH]c3ncc(Cl)cc23)c1F + C#Cc1cccc(Nc2ncnc3cc(OCCOC)c(OCCOC)cc23)c1 [erlotinib] (first compound 0.08 µM, partner dose 0.8 µM)",90.1%,40.1%,89%,63.8%,79.4%,79.5%,213%,78.7%,144%,135%,107%,255%,102%,43.3%,,
"Nc1nc(F)nc2c1ncn2[C@@H]1O[C@H](CO)[C@@H](O)[C@@H]1O [fludarabine] + OCc1c[nH]c2ccccc12 [Indole-3-carbinol] (first compound 0.2 µM, partner dose 0.8 µM)",93.5%,590%,85.3%,138%,51.9%,1550%,1870%,77.7%,121%,77.2%,94.2%,486%,119%,122%,,
"C[C@@H](Oc1cc(-c2cnn(C3CCNCC3)c2)cnc1N)c1c(Cl)ccc(F)c1Cl [Crizotinib] + Clc1ccc(Nc2nnc(Cc3ccncc3)c3ccccc23)cc1 [vatalanib] (first compound 0.2 µM, partner dose 2 µM)",123%,119%,93.4%,56.6%,212%,147%,113%,61.2%,86.9%,90.3%,106%,145%,107%,143%,,
"C=C(c1ccc(C(=O)O)cc1)c1cc2c(cc1C)C(C)(C)CCC2(C)C [Bexarotene] + CC(=O)c1c(C)c2cnc(Nc3ccc(N4CCNCC4)cn3)nc2n(C2CCCC2)c1=O [palbociclib] (first compound 2 µM, partner dose 0.04 µM)",130%,23%,63.6%,129%,85.8%,99.3%,176%,45.7%,88.4%,184%,121%,141%,109%,98.8%,,
"CS(=O)(=O)CCNCc1ccc(-c2ccc3ncnc(Nc4ccc(OCc5cccc(F)c5)c(Cl)c4)c3c2)o1 [lapatinib] + Cc1nc(Nc2ncc(C(=O)Nc3c(C)cccc3Cl)s2)cc(N2CCN(CCO)CC2)n1 [dasatanib] (first compound 0.8 µM, partner dose 0.004 µM)",156%,112%,81.2%,266%,90.5%,69.2%,66.2%,148%,131%,34.1%,139%,38.3%,111%,25.6%,,
"Cc1cc(Nc2cc(N3CCN(C)CC3)nc(/C=C/c3ccccc3)n2)n[nH]1 + Nc1nc(F)nc2c1ncn2[C@@H]1O[C@H](CO)[C@@H](O)[C@@H]1O [fludarabine] (first compound 0.04 µM, partner dose 0.2 µM)",36.3%,1250%,84.3%,107%,88.9%,300%,692%,171%,183%,66.6%,111%,1090%,90%,146%,,
"CCCS(=O)(=O)Nc1ccc(F)c(C(=O)c2c[nH]c3ncc(Cl)cc23)c1F + Nc1nc(F)nc2c1ncn2[C@@H]1O[C@H](CO)[C@@H](O)[C@@H]1O [fludarabine] (first compound 0.08 µM, partner dose 0.2 µM)",105%,862%,87.2%,153%,205%,689%,956%,234%,144%,111%,90.4%,2120%,101%,386%,,
"CC(C)C[C@H](NC(=O)[C@H](Cc1ccccc1)NC(=O)c1cnccn1)B(O)O [Bortezomib] + COc1ccc(Cl)c(Nc2nc3ccccc3nc2NS(=O)(=O)c2cccc(NC(=O)C(C)(C)N)c2)c1 [XL147] (first compound 0.001 µM, partner dose 0.8 µM)",144%,66.9%,134%,206%,90.6%,116%,29.2%,180%,37%,98.9%,144%,89.4%,375%,208%,,
"Cc1cc(Nc2cc(N3CCN(C)CC3)nc(/C=C/c3ccccc3)n2)n[nH]1 + Nc1ncn([C@H]2C[C@H](O)[C@@H](CO)O2)c(=O)n1 [decitabine] (first compound 0.04 µM, partner dose 0.1 µM)",96%,39.7%,58.4%,59.2%,75.6%,83.8%,69.3%,75.9%,160%,99.4%,93.5%,42.7%,99.5%,67%,,
"Nc1ccn([C@@H]2O[C@H](CO)[C@@H](O)C2(F)F)c(=O)n1 [gemcitabine] + C=CCNC1=C2C[C@@H](C)C[C@H](OC)[C@H](O)[C@@H](C)/C=C(\C)[C@H](OC(N)=O)[C@@H](OC)/C=C\C=C(/C)C(=O)NC(=CC1=O)C2=O [Tanespimycin] (first compound 0.0004 µM, partner dose 0.002 µM)",133%,46.4%,47%,60.2%,39.1%,81.7%,59.7%,176%,72.7%,378%,137%,92.6%,203%,76.2%,,
"Nc1ccn([C@@H]2O[C@H](CO)[C@@H](O)C2(F)F)c(=O)n1 [gemcitabine] + OCc1c[nH]c2ccccc12 [Indole-3-carbinol] (first compound 0.0004 µM, partner dose 0.8 µM)",61.5%,106%,299%,138%,63.1%,99.7%,92.9%,36%,103%,39.3%,133%,23.2%,173%,46.8%,,
"CO[C@H]1C[C@@H]2CC[C@@H](C)[C@@](O)(O2)C(=O)C(=O)N2CCCC[C@H]2C(=O)O[C@H]([C@H](C)C[C@@H]2CC[C@@H](OCCO)[C@H](OC)C2)CC(=O)[C@H](C)/C=C(\C)[C@@H](O)[C@@H](OC)C(=O)[C@H](C)C[C@H](C)/C=C/C=C/C=C/1C [everolimus] + COc1ccc(-c2ccc3c(N4CCOCC4)nc(N4C[C@@H](C)O[C@@H](C)C4)nc3n2)cc1CO [KU0063794] (first compound 0.02 µM, partner dose 0.02 µM)",223%,40.7%,155%,55.7%,515%,,171%,319%,167%,72.8%,92%,133%,139%,77.4%,76.9%,320%

# A second format for part of the listing above.
SMILES | cleaved PARP positive nuclei fraction (MZ2-MEL) | cleaved PARP positive nuclei fraction (MeWo) | cleaved PARP positive nuclei fraction (RPMI7951) | cleaved PARP positive nuclei fraction (RVH-421) | cleaved PARP positive nuclei fraction (SkMel28) | cleaved PARP positive nuclei fraction (SkMel2) | cleaved PARP positive nuclei fraction (SkMel30) | cleaved PARP positive nuclei fraction (UACC62) | cleaved PARP positive nuclei fraction (WM115) | cleaved PARP positive nuclei fraction (WM1716) | cleaved PARP positive nuclei fraction (WM1745) | cleaved PARP positive nuclei fraction (WM3526) | cleaved PARP positive nuclei fraction (WM3619) | cleaved PARP positive nuclei fraction (WM451Lu) | cleaved PARP positive nuclei fraction (SkMel5) | cleaved PARP positive nuclei fraction (UACC257)
C=C(c1ccc(C(=O)O)cc1)c1cc2c(cc1C)C(C)(C)CCC2(C)C [Bexarotene] + CC(=O)c1c(C)c2cnc(Nc3ccc(N4CCNCC4)cn3)nc2n(C2CCCC2)c1=O [palbociclib] (first compound 2 µM, partner dose 0.04 µM) | 130% | 23% | 63.6% | 129% | 85.8% | 99.3% | 176% | 45.7% | 88.4% | 184% | 121% | 141% | 109% | 98.8% |  | 
CS(=O)(=O)CCNCc1ccc(-c2ccc3ncnc(Nc4ccc(OCc5cccc(F)c5)c(Cl)c4)c3c2)o1 [lapatinib] + Cc1nc(Nc2ncc(C(=O)Nc3c(C)cccc3Cl)s2)cc(N2CCN(CCO)CC2)n1 [dasatanib] (first compound 0.8 µM, partner dose 0.004 µM) | 156% | 112% | 81.2% | 266% | 90.5% | 69.2% | 66.2% | 148% | 131% | 34.1% | 139% | 38.3% | 111% | 25.6% |  | 
